Experimental data reported in PubChem BioAssay AID540275 (National Center for Advancing Translational Sciences (NCATS), 2011).
Screen size: about 320,000 compounds; about 620 (0.19%) were called active. Inconclusive means that the source gave no clear call. Such entries were picked first, then a sample of the others. Cut-off read from the data, not from the text of the source: active = activation above about 80%; inconclusive = between about 30% and that limit; inactive = weaker than that.

Chains of the proteins cited; added tags and fusions are not shown.
UniProt Q8NER1, whole entry, looked up: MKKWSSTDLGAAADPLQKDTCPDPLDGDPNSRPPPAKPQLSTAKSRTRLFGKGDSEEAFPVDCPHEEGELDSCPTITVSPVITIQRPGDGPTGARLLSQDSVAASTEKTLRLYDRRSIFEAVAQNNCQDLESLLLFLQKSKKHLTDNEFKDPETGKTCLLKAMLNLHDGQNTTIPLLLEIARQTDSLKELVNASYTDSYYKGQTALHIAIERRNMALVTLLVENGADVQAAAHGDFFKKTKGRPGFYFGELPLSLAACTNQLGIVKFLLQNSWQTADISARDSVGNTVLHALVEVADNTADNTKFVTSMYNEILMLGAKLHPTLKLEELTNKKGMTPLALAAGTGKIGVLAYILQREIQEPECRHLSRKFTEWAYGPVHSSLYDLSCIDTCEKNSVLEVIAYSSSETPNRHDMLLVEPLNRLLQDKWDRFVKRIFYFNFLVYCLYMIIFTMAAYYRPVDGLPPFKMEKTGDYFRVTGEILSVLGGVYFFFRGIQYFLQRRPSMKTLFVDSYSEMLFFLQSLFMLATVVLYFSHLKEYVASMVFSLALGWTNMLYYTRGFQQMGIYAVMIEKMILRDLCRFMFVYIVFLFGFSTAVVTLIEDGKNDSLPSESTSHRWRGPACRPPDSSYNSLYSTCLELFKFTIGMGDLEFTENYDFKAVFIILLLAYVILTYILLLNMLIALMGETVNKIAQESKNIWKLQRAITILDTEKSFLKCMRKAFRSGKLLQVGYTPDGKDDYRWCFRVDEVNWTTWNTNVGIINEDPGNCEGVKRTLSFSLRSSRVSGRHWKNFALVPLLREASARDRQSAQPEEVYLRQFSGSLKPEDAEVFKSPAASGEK

What follows are molecules tested against Transient receptor potential cation channel subfamily V member 1 (Homo sapiens) (UniProt Q8NER1) (assay: HTS Assay for Compounds that Act as Agonists of the Vanilloid Receptor 1). Conditions: TRPV1-expressing cells, Fluo-8 calcium influx, agonist mode; at 8.33 µM, active compounds read high.
Summary of the method: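 Fluo-8 calcium influx in TRPV1-expressing cells, kinetic read (ex 480/em 520 nm). Compound added and read 3 min for agonist activity, followed by capsaicin at EC20 final and 2 min further read for enhancement.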
Note: 0% is about no effect.

Compound | activation
Cc1cc(C#N)c2ccccc2n1 | inactive: -1.1%
O=C(CCSCc1ccc(Cl)cc1)NC1CCCC1 | inconclusive: 36.9%
COc1ccc2oc(C(=O)OCC(=O)Nc3ccccc3)c(C)c2c1 | inactive: 4.32%
COc1ccc(CN(Cc2ccc(C(=O)O)cc2)C(=S)Nc2ccccc2Cl)cc1OC | inactive: -7.09%
O=C(Nc1ccc(NC(=O)c2cccs2)cc1)c1ccco1 | inactive: 0.0232%
CCN1CCN(C(c2cccs2)C(C)NC(=S)NC2CCCCC2)CC1 (stereo not given) | inactive: 6.15%
CCOC(=O)c1c(-c2ccc(F)cc2)csc1NC(=O)CCN1CCOCC1 | inconclusive: 30%
COc1ccccc1-n1c(C)c(C(=O)O)c2cc(OC)c3ccccc3c21 | inconclusive: 34.5%
O=C(CSCc1ccccc1)N=Nc1c(O)[nH]c2ccccc12 | inactive: 6.55%
CC(C)(C)NC(=O)c1ccc2c(c1)C(=O)N(C1CCCCC1)C2=O | inconclusive: 39.3%
O=C(N/N=C/c1cccnc1)c1ccc(NC(=O)c2ccccc2Cl)cc1 | inconclusive: 53.3%
CCOc1ccccc1N=c1oc2cc(O)ccc2cc1C(=O)NCC1CCCO1 (stereo not given) | inconclusive: 51%
CCCNC(=O)OCC12CC3CC(CC(C3)C1)C2 | inconclusive: 49.8%
COc1ccc(/C=N/Nc2cc(C)nc(N3CCOCC3)n2)cc1 | inconclusive: 64.9%
Cn1ncc2c(Nc3cccc(Cl)c3)nc(Nc3cccc(Cl)c3)nc21 | inactive: 2.59%
CCC(/C=C1\Sc2ccc(OC)cc2N1CCO)=C\c1sc2ccc(OC)cc2[n+]1CCO | inactive: -2.05%
O=C(CCN1CCCCC1)c1ccc2c(c1)OCCO2 | inactive: -1.79%
Cc1nnsc1C(=O)N1CCCC(Nc2ccc(C(C)C)cc2)C1 (stereo not given) | inconclusive: 47.3%
O=C(NCc1ccccc1Cl)C1CCCN(c2nc3ccsc3c(=O)s2)C1 (stereo not given) | inconclusive: 61.9%
CCCCNC(=S)N(CCN(C)C)Cc1cc2cc3c(cc2[nH]c1=O)OCCO3 | inconclusive: 47.8%
CCOC(=O)N1CCN(C(=O)C(NC(=O)c2ccc(CC)cc2)C(C)C)CC1 (stereo not given) | inactive: 3%
Cc1ccc(-c2cc(C(=O)NC3=NCCS3)c3ccccc3n2)cc1C | inconclusive: 34.7%
CCOc1ccc2[nH]c3c(N4CCN(c5ccccn5)CC4)ncnc3c2c1 | inactive: -1.27%

Compound | activation
COc1ccc(Oc2ccc3c(C(F)(F)F)cc(C(F)(F)F)nc3n2)cc1 | inactive: 16.9%
Cc1cc(C(=O)Nc2ccc3ccccc3c2)c(C)o1 | inconclusive: 41.1%
COc1ccccc1NC(=O)CC1S/C(=N/N=C(\C)C2CCCCC2)NC1=O (stereo not given) | inconclusive: 40.2%
Cn1nnnc1SCCNCc1ccccc1OCc1ccc(Cl)cc1 | inconclusive: 33.4%
COc1cc(C(=O)OCC(=O)NC2CC2)ccc1OCCC(C)C | inconclusive: 33.4%
CCOC(=O)/C(=N/Nc1ccccc1)c1csc(Nc2ccccc2)n1 | inactive: 17%
COc1cc(CN2CCCC(C)C2)ccc1OCc1ccccc1 (stereo not given) | inactive: -2.07%
CCC(C)Sc1cccc(-c2nc3ccc(Cl)cn3c2NCc2ccccc2)c1 (stereo not given) | active: 87.4%
COc1ccc(S(=O)(=O)N(C)c2ccc(C(=O)NCc3ccncc3)cc2)cc1 | inconclusive: 30.5%
O=C(/C=C/c1ccc(F)cc1)NCc1cccs1 | inconclusive: 36.3%
CC1=C(C(=O)Nc2ccccc2C(=O)NC2CCCCC2)SCCO1 | inconclusive: 49.7%
CC(C)Cn1c(SCC(=O)Nc2ccc3[nH]c(=O)[nH]c3c2)nc2ccccc2c1=O | inconclusive: 76.1%
Cc1cc(CC(C)C)n(-c2nc3ccccc3c(=O)n2OCc2ccccc2)n1 | inconclusive: 60.6%
CCOC(=O)c1nnc(-c2ccccc2)nc1N1CC(C)OC(C)C1 (stereo not given) | inconclusive: 39.9%
O=C(C1COc2ccccc2O1)N1CCN(c2ccccc2)CC1 (stereo not given) | inconclusive: 38.8%
CCOc1ccc(N(CC(=O)N2CCOCC2)S(=O)(=O)c2ccc(Cl)cc2)cc1 | inconclusive: 63.1%
O=C(Nc1ccc(N2CCOCC2)nc1)c1ccc(F)cc1 | inconclusive: 58.7%
CCOC(=O)C(C)Sc1nc2c(c(=O)[nH]c(=O)n2C)n1Cc1ccc(Cl)cc1 (stereo not given) | inactive: 11.3%
c1cncc(-c2nc3c(ccc4ccccc43)[nH]2)c1 | inconclusive: 38.1%
O=C(CSCc1nc2ccccc2[nH]1)Nc1ccc2ccccc2c1 | inconclusive: 41.3%
CC(=O)Nc1cc(C(=O)N2CCCC2)ccc1Sc1ccc(Cl)cc1 | inactive: -3.62%
O=C(N/N=C/c1ccccn1)c1cccc(NC(=O)c2ccc(Cl)cc2)c1 | inconclusive: 50.9%
Oc1ccccc1C1N=C(c2ccccc2)NC(c2ccccc2)=N1 | inconclusive: 36.2%

Compound | activation
O=C(c1cc2cc(Br)ccc2s1)N1CCOCC1 | inconclusive: 61.2%
O=C(N/N=C\c1cc(Cl)ccc1O)c1ccc(S(=O)(=O)N2CCCCC2)cc1 | inconclusive: 55.5%
O=[N+]([O-])c1cccc(-c2nnc(-c3ccccc3)o2)c1 | inconclusive: 32.4%
COc1cc(NC(=O)Nc2cccc(C(C)=O)c2)cc(OC)c1OC | active: 81.6%
CCOC(=O)c1c(NC(=O)Cc2cccs2)sc(C(=O)NC2CCCC2)c1C | inconclusive: 40.8%
Cc1nc(C)c(-c2ccc(SCC(=O)Nc3ccc(C)c(Cl)c3)nn2)s1 | inactive: 7.68%
CC1CCC(NC(=O)c2cc3c(s2)CS(=O)(=O)C3)CC1 (stereo not given) | inconclusive: 50.3%
O=C(c1ccc(F)cc1)N1CCCC(C(=O)N2CCc3ccccc3C2)C1 (stereo not given) | inconclusive: 40.9%
CCn1cc(C(=O)NCCCOC)c(=O)c2cc(S(=O)(=O)N(C)C3CCCCC3)ccc21 | inconclusive: 33.8%
CN(CC(=O)Nc1ccc(Cl)c(C(F)(F)F)c1)C(=O)c1ccc(OCC2CCCO2)cc1 (stereo not given) | inactive: 4.28%
O=C(c1ccccc1Cl)N(Cc1ccc(Cl)c(Cl)c1)N1C(=O)CCCC1=O | inconclusive: 36.5%
O=C(Nc1ccc(OC(F)(F)F)cc1)c1ccc2nccnc2c1 | inconclusive: 43.4%
Cc1ccc(SCCC(=O)Nc2cccnc2)cc1 | inconclusive: 31.5%
CC(=O)Nc1ccc2[nH]c(C)cc(=O)c2c1 | inactive: 2.21%
CC(C)(C)C1CCC(OC(=O)CCC(=O)Nc2ccccc2)CC1 (stereo not given) | inconclusive: 47%
CCCCSCCCNC(=O)c1cn(C)c2ccc(S(=O)(=O)N3CCCC3)cc2c1=O | inconclusive: 33.3%
Cn1cnnc1SCC(=O)Nc1nc(-c2ccccc2)cs1 | active: 89%
Cn1nccc1C(=O)N1CCN(c2cccc(Cl)c2)CC1 | inconclusive: 43.3%
CCNC(=O)CCSc1nc2cc(Cl)ccc2o1 | inconclusive: 35%
CC(CCc1ccccc1)NC(=O)Cn1cccc1C(=O)c1ccccc1 (stereo not given) | inactive: 11.1%
O=C(C1CC(c2ccc(F)cc2)=NO1)N1CCN(c2ccccc2)CC1 (stereo not given) | inconclusive: 32.1%
O=C(Nc1ccc(F)c(F)c1)NC1CCCCC1 | inconclusive: 49.6%
CCCN1C(=O)/C(=C/c2c(N3CCNC(=O)C3CC(=O)OC)nc3c(C)cccn3c2=O)SC1=S (stereo not given) | inconclusive: 57.5%

Compound | activation
CCCCn1nc(NC(=O)CC)c2cc3cc(OC)ccc3nc21 | inconclusive: 32.3%
O=C1CSc2ccc(C(=O)NCCC3=CCCCC3)cc2N1 | inconclusive: 73.1%
Cc1nn(Cc2ccc([N+](=O)[O-])cc2)c(=O)n1-c1cccc(Cl)c1 | inconclusive: 41.7%
O=C(CCc1nc2ccccc2c(=O)[nH]1)N1CCN(C/C=C/c2ccccc2)CC1 | inconclusive: 30.6%
Cc1nn(S(=O)(=O)c2ccccc2)c(C)c1Sc1ccc([N+](=O)[O-])cc1 | inactive: -1.09%
CC(=O)N(CCc1ccccc1C)Cc1cc2ccc(C)cc2[nH]c1=O | inconclusive: 51.2%
COc1ccc(CNCC(O)COc2cccc3c2OC(C)(C)C3)cc1 (stereo not given) | inactive: 2.46%
COc1ccc(NC(=O)c2ccc(-c3ccccc3C(F)(F)F)o2)cc1 | inconclusive: 56.4%
CCc1ccc(/C=C2\Oc3cc(OC(=O)N4CCOCC4)ccc3C2=O)cc1 | inconclusive: 39.6%
O=C(Nc1cccc(-c2ccc3nncn3n2)c1)C(F)(F)F | inactive: -1.06%
CC(C)c1nnc(NC(=O)CS(=O)(=O)Cc2ccccc2)s1 | inactive: -1.63%
N=c1c(C(=O)NCc2ccc(F)cc2)cc2c(=O)n3ccccc3nc2n1Cc1cccnc1 | inconclusive: 53.9%
COc1ccc(C(=O)Nc2ccc(N3CCCC3)cc2)cc1Br | inconclusive: 63.8%
NC(=O)c1nsc(C(=O)N(CCc2ccccc2)C(C(=O)NC2CCCC2)c2ccco2)c1N (stereo not given) | inconclusive: 36.9%
O=C(Nc1cccc(S(=O)(=O)Nc2ccccc2Cl)c1)c1ccc(N2CCCC2)c([N+](=O)[O-])c1 | inconclusive: 36.9%
CC(C)C1CCN(C(=O)C2CCC(=O)N(CCc3ccc(Cl)cc3)C2)CC1 (stereo not given) | inconclusive: 33.1%
CC(C)(C)OC(=O)N[C@H](/C=C/c1ccccc1)C(=O)OC(C)(C)C | inconclusive: 45.1%
CC(C)C[C@H](NC(=O)OC(C)(C)C)c1nnc(SCc2ccccc2)o1 | inconclusive: 44.6%
CC(C)Cc1cc(C(=O)Nc2ccc(Br)cc2)no1 | inconclusive: 34.1%
O=C(COc1ccc(Cl)cc1)N1CCN(c2ccc([N+](=O)[O-])c(N3CCOCC3)c2)CC1 | inactive: -0.0304%
O=C(NCc1ccccc1)Nc1cccn(Cc2cccc(F)c2)c1=O | inconclusive: 41.7%

Some of the entries so far, comma-delimited.
Compound,activation
CCCN1C(=O)/C(=C/c2c(N3CCNC(=O)C3CC(=O)OC)nc3c(C)cccn3c2=O)SC1=S (stereo not given),inconclusive: 57.5%
CCCCn1nc(NC(=O)CC)c2cc3cc(OC)ccc3nc21,inconclusive: 32.3%
O=C1CSc2ccc(C(=O)NCCC3=CCCCC3)cc2N1,inconclusive: 73.1%
Cc1nn(Cc2ccc([N+](=O)[O-])cc2)c(=O)n1-c1cccc(Cl)c1,inconclusive: 41.7%
O=C(CCc1nc2ccccc2c(=O)[nH]1)N1CCN(C/C=C/c2ccccc2)CC1,inconclusive: 30.6%
Cc1nn(S(=O)(=O)c2ccccc2)c(C)c1Sc1ccc([N+](=O)[O-])cc1,inactive: -1.09%
CC(=O)N(CCc1ccccc1C)Cc1cc2ccc(C)cc2[nH]c1=O,inconclusive: 51.2%
COc1ccc(CNCC(O)COc2cccc3c2OC(C)(C)C3)cc1 (stereo not given),inactive: 2.46%
COc1ccc(NC(=O)c2ccc(-c3ccccc3C(F)(F)F)o2)cc1,inconclusive: 56.4%
CCc1ccc(/C=C2\Oc3cc(OC(=O)N4CCOCC4)ccc3C2=O)cc1,inconclusive: 39.6%
O=C(Nc1cccc(-c2ccc3nncn3n2)c1)C(F)(F)F,inactive: -1.06%
CC(C)c1nnc(NC(=O)CS(=O)(=O)Cc2ccccc2)s1,inactive: -1.63%
N=c1c(C(=O)NCc2ccc(F)cc2)cc2c(=O)n3ccccc3nc2n1Cc1cccnc1,inconclusive: 53.9%
COc1ccc(C(=O)Nc2ccc(N3CCCC3)cc2)cc1Br,inconclusive: 63.8%
NC(=O)c1nsc(C(=O)N(CCc2ccccc2)C(C(=O)NC2CCCC2)c2ccco2)c1N (stereo not given),inconclusive: 36.9%
O=C(Nc1cccc(S(=O)(=O)Nc2ccccc2Cl)c1)c1ccc(N2CCCC2)c([N+](=O)[O-])c1,inconclusive: 36.9%
CC(C)C1CCN(C(=O)C2CCC(=O)N(CCc3ccc(Cl)cc3)C2)CC1 (stereo not given),inconclusive: 33.1%
CC(C)(C)OC(=O)N[C@H](/C=C/c1ccccc1)C(=O)OC(C)(C)C,inconclusive: 45.1%
CC(C)C[C@H](NC(=O)OC(C)(C)C)c1nnc(SCc2ccccc2)o1,inconclusive: 44.6%
CC(C)Cc1cc(C(=O)Nc2ccc(Br)cc2)no1,inconclusive: 34.1%
O=C(COc1ccc(Cl)cc1)N1CCN(c2ccc([N+](=O)[O-])c(N3CCOCC3)c2)CC1,inactive: -0.0304%
O=C(NCc1ccccc1)Nc1cccn(Cc2cccc(F)c2)c1=O,inconclusive: 41.7%
